Laboratory results from publication doi:10.1101/2024.10.17.618965.
Like-named read-outs stand apart in the source and are kept apart here. Results are given in words; binding and its absence hold for the method and conditions named. Binding seen in cells or lysates may run through a third protein. Some entries that bind do so weakly or less than the wild type. For some of these results: Tags and fused reporters may be left off the sequences shown.

T1: Tight junction protein ZO-2, endogenous in MDCK cells (dog (endogenous in MDCK)) (UniProt Q95168)
T1 sequence: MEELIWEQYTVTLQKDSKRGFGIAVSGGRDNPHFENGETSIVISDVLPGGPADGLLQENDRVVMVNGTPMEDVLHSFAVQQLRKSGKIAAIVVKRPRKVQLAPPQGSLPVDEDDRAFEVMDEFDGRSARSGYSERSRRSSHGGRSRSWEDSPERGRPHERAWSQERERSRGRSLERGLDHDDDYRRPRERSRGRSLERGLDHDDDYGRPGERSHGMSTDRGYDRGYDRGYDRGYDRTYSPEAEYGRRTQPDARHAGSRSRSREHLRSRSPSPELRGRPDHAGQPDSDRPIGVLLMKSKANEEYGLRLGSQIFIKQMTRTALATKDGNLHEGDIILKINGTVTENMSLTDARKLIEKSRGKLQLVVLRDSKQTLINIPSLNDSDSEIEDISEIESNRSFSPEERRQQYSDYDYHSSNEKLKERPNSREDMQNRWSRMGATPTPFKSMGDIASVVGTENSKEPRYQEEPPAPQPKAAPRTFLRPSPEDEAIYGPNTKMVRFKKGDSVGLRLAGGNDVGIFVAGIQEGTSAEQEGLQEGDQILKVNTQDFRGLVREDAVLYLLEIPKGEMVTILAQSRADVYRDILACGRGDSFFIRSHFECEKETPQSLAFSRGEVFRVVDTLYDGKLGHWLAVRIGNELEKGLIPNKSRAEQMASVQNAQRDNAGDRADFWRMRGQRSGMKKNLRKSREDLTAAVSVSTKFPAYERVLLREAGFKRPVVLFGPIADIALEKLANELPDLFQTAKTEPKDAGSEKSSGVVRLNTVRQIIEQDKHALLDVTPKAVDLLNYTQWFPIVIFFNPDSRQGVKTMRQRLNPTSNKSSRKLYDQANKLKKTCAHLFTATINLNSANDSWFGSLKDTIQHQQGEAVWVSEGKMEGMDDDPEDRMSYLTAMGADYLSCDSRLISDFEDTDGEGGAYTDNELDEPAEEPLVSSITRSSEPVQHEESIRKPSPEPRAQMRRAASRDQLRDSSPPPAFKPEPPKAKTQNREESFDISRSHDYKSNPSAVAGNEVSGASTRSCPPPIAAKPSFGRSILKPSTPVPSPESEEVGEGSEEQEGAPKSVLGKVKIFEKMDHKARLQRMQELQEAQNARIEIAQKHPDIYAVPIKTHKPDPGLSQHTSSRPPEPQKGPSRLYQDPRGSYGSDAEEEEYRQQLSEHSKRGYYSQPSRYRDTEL

T2: FLAG-LATS1 (human LATS1 in pXJ40) (human) (UniProt O95835)
T2 sequence: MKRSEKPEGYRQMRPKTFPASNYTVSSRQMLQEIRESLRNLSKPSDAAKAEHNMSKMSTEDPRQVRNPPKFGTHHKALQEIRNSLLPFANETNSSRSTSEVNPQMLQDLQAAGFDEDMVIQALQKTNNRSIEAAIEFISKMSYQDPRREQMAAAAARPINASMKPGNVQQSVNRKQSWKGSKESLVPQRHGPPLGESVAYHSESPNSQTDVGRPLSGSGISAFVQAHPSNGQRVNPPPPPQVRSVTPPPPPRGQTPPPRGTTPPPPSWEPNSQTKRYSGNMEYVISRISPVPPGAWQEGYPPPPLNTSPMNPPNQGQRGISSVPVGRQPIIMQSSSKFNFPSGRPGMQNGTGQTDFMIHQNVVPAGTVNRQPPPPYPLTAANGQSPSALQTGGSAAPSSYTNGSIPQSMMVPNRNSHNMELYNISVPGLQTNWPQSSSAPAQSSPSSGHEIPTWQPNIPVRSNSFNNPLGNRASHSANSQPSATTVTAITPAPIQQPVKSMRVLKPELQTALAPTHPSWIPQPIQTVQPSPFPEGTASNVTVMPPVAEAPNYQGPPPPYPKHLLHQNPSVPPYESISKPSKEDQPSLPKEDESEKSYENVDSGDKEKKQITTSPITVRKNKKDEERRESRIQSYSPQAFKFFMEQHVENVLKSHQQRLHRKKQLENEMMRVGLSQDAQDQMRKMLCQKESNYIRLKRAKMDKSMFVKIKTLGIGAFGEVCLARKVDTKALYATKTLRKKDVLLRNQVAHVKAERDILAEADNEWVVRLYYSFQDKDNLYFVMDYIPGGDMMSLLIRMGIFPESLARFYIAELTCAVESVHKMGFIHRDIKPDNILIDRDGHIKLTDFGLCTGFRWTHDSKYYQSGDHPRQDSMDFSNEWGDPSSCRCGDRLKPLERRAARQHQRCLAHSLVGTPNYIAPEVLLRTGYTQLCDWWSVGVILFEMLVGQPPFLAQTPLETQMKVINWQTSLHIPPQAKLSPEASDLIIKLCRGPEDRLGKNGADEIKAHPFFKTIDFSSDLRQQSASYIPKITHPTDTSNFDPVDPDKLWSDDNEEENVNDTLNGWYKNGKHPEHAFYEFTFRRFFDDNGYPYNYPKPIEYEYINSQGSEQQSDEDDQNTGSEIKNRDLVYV


Assays:
Test in all cases: co-IP
[1] = biological target: T1, Tight junction protein ZO-2, endogenous in MDCK cells (dog (endogenous in MDCK))
[2] = biological target: T1, Tight junction protein ZO-2, endogenous in MDCK cells (dog (endogenous in MDCK)); remark: listed apart in the source
[3] = biological target: T2, FLAG-LATS1 (human LATS1 in pXJ40) (human)
[4] = biological target: FLAG-YAP (human YAP1-2γ in pXJ40) (human) (UniProt P46937)

Row | binding [1] | binding [2] | binding [3] | binding [4] | Molecule
1 | binds | binds | – | – | Yes-associated protein YAP, endogenous in MDCK cells (from UniProt A0A8C0NGY6 1-506)
2 | – | – | binds | binds | full-length HA-ZO-2 (human ZO-2 in pXJ40) (protein, UniProt Q9UDY2 1-1190) MPVRGDRGFPPRRELSGWLRAPGMEELIWEQYTVTLQKDSKRGFGIAVSGGRDNPHFENGETSIVISDVLPGGPADGLLQENDRVVMVNGTPMEDVLHSFAVQQLRKSGKVAAIVVKRPRKVQVAALQASPPLDQDDRAFEVMDEFDGRSFRSGYSERSRLNSHGGRSRSWEDSPERGRPHERARSRERDLSRDRSRGRSLERGLDQDHARTRDRSRGRSLERGLDHDFGPSRDRDRDRSRGRSIDQDYERAYHRAYDPDYERAYSPEYRRGARHDARSRGPRSRSREHPHSRSPSPEPRGRPGPIGVLLMKSRANEEYGLRLGSQIFVKEMTRTGLATKDGNLHEGDIILKINGTVTENMSLTDARKLIEKSRGKLQLVVLRDSQQTLINIPSLNDSDSEIEDISEIESNRSFSPEERRHQYSDYDYHSSSEKLKERPSSREDTPSRLSRMGATPTPFKSTGDIAGTVVPETNKEPRYQEDPPAPQPKAAPRTFLRPSPEDEAIYGPNTKMVRFKKGDSVGLRLAGGNDVGIFVAGIQEGTSAEQEGLQEGDQILKVNTQDFRGLVREDAVLYLLEIPKGEMVTILAQSRADVYRDILACGRGDSFFIRSHFECEKETPQSLAFTRGEVFRVVDTLYDGKLGNWLAVRIGNELEKGLIPNKSRAEQMASVQNAQRDNAGDRADFWRMRGQRSGVKKNLRKSREDLTAVVSVSTKFPAYERVLLREAGFKRPVVLFGPIADIAMEKLANELPDWFQTAKTEPKDAGSEKSTGVVRLNTVRQIIEQDKHALLDVTPKAVDLLNYTQWFPIVIFFNPDSRQGVKTMRQRLNPTSNKSSRKLFDQANKLKKTCAHLFTATINLNSANDSWFGSLKDTIQHQQGEAVWVSEGKMEGMDDDPEDRMSYLTAMGADYLSCDSRLISDFEDTDGEGGAYTDNELDEPAEEPLVSSITRSSEPVQHEESIRKPSPEPRAQMRRAASSDQLRDNSPPPAFKPEPPKAKTQNKEESYDFSKSYEYKSNPSAVAGNETPGASTKGYPPPVAAKPTFGRSILKPSTPIPPQEGEEVGESSEEQDNAPKSVLGKVKIFEKMDHKARLQRMQELQEAQNARIEIAQKHPDIYAVPIKTHKPDPGTPQHTSSRPPEPQKAPSRPYQDTRGSYGSDAEEEEYRQQLSEHSKRGYYGQSARYRDTEL
